Reference: PubChem BioAssay AID186 (DTP/NCI, 2004)
Shown are survivors of the treated group in tumour-free mice. Survivors were counted at the toxicity check, usually on the fifth day, unless a day is given; later deaths do not show. Schedules are NCI's codes, read here as Q, the interval in days (D) or hours (H), X, the number of doses. Additions like (4×) stand for listed records that agree.

System: B6D2F1 mice, nontumored toxicity test, survival
Test: NCI In Vivo Anticancer Drug Screen. Data for tumor model Nontumored Animals (Toxicity Test) in B6D2F1 (BDF1) mice

CC[n+]1ccc(Nc2ccc(NC(=O)c3ccc(Nc4cc[n+](CC)c5ccc(N)cc45)cc3)cc2)cc1
survivor count (dose: 0.12 mg/kg/injection, schedule: Q01DX005 (iv), vehicle: water): 8 of 8
survivor count (dose: 0.12 mg/kg/injection, schedule: Q04DX003 (iv), vehicle: water): 8 of 8
survivor count (dose: 0.25 mg/kg/injection, schedule: Q01DX005 (iv), vehicle: water): 8 of 8
survivor count (dose: 0.25 mg/kg/injection, schedule: Q04DX003 (iv), vehicle: water): 8 of 8
survivor count (dose: 0.5 mg/kg/injection, schedule: Q01DX005 (iv), vehicle: water): 8 of 8
survivor count (dose: 0.5 mg/kg/injection, schedule: Q03HX024 (ip), vehicle: water): 8 of 8
survivor count (dose: 0.5 mg/kg/injection, schedule: Q03HX024 (oral), vehicle: water): 8 of 8
survivor count (dose: 0.5 mg/kg/injection, schedule: Q04DX003 (iv), vehicle: water): 8 of 8
survivor count (dose: 1.0 mg/kg/injection, schedule: Q01DX005 (iv), vehicle: water): 8 of 8
survivor count (dose: 1.0 mg/kg/injection, schedule: Q01DX009 (oral), vehicle: water): 8 of 8
survivor count (dose: 1.0 mg/kg/injection, schedule: Q03HX024 (ip), vehicle: water): 8 of 8
survivor count (dose: 1.0 mg/kg/injection, schedule: Q03HX024 (oral), vehicle: water): 8 of 8
survivor count (dose: 1.0 mg/kg/injection, schedule: Q04DX003 (iv), vehicle: water): 8 of 8
survivor count (dose: 2.0 mg/kg/injection, schedule: Q01DX005 (iv), vehicle: water): 0 of 8
survivor count (dose: 2.0 mg/kg/injection, schedule: Q01DX009 (ip), vehicle: water): 8 of 8
survivor count (dose: 2.0 mg/kg/injection, schedule: Q01DX009 (oral), vehicle: water): 8 of 8
survivor count (dose: 2.0 mg/kg/injection, schedule: Q03HX024 (ip), vehicle: water): 8 of 8
survivor count (dose: 2.0 mg/kg/injection, schedule: Q03HX024 (oral), vehicle: water): 8 of 8
survivor count (dose: 2.0 mg/kg/injection, schedule: Q04DX003 (iv), vehicle: water): 3 of 8
survivor count (dose: 4.0 mg/kg/injection, schedule: Q01DX009 (ip), vehicle: water): 8 of 8
survivor count (dose: 4.0 mg/kg/injection, schedule: Q01DX009 (oral), vehicle: water): 8 of 8
survivor count (dose: 4.0 mg/kg/injection, schedule: Q03HX024 (ip), vehicle: water): 8 of 8
survivor count (dose: 4.0 mg/kg/injection, schedule: Q03HX024 (oral), vehicle: water): 8 of 8
survivor count (dose: 8.0 mg/kg/injection, schedule: Q01DX009 (oral), vehicle: water): 8 of 8
survivor count (dose: 8.0 mg/kg/injection, schedule: Q04DX003 (ip), vehicle: water): 8 of 8
survivor count (dose: 16.0 mg/kg/injection, schedule: Q04DX003 (ip), vehicle: water): 6 of 8

O=NN(CCCl)C(=O)NCCCl
survivor count (dose: 2.5 mg/kg/injection, schedule: Q04DX003 (ip), vehicle: saline + alcohol): 4 of 4
survivor count (dose: 5.0 mg/kg/injection, schedule: Q04DX003 (ip), vehicle: saline + alcohol): 4 of 4
survivor count (dose: 8.0 mg/kg/injection, schedule: Q01DX001 (ip), vehicle: saline + alcohol): 4 of 4
survivor count (dose: 9.4 mg/kg/injection, schedule: Q01DX001 (ip), vehicle: saline + alcohol): 10 of 10
survivor count (dose: 10.0 mg/kg/injection, schedule: Q04DX003 (ip), vehicle: saline + alcohol): 4 of 4
survivor count (dose: 16.0 mg/kg/injection, schedule: Q01DX001 (ip), vehicle: saline + alcohol): 4 of 4
survivor count (dose: 18.75 mg/kg/injection, schedule: Q01DX001 (ip), vehicle: saline + alcohol): 10 of 10
survivor count (dose: 20.0 mg/kg/injection, schedule: Q01DX001 (ip), vehicle: saline + alcohol): 10 of 10
survivor count (dose: 20.0 mg/kg/injection, schedule: Q04DX003 (ip), vehicle: saline + alcohol): 4 of 4
survivor count (dose: 24.0 mg/kg/injection, schedule: Q01DX009 (sc), vehicle: saline): 8 of 8
survivor count (dose: 30.0 mg/kg/injection, schedule: Q01DX001 (ip), vehicle: saline + alcohol): 10 of 10 (2×)
survivor count (dose: 32.0 mg/kg/injection, schedule: Q01DX001 (ip), vehicle: saline + alcohol): 4 of 4
survivor count (dose: 37.5 mg/kg/injection, schedule: Q01DX001 (ip), vehicle: saline + alcohol): 10 of 10
survivor count (dose: 40.0 mg/kg/injection, schedule: Q01DX001 (ip), vehicle: saline + alcohol): 10 of 10 (2×)
survivor count (dose: 48.0 mg/kg/injection, schedule: Q01DX009 (sc), vehicle: saline): 8 of 8
survivor count (dose: 64.0 mg/kg/injection, schedule: Q01DX001 (ip), vehicle: saline + alcohol): 4 of 4
survivor count (dose: 75.0 mg/kg/injection, schedule: Q01DX001 (ip), vehicle: saline + alcohol): 10 of 10
